# Library screen at single concentrations

A: 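Phenotypic screen: M. tuberculosis growth, glucose 7H9 medium, 3 days; the read-out is not stated. Compounds at 50 µM. The record gives no direction; compounds that gave an IC50 in retests scored well above the rest, so higher reads as more growth inhibition. About 69,000 compounds were tested under these conditions; 1.1% (about 760) showed 50% or more at least once.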
B: 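Phenotypic screen: M. tuberculosis growth, cholesterol and DPPC medium, 4 days; the read-out is not stated. Concentration: 50 µM. The record gives no direction; compounds that gave an IC50 in retests scored well above the rest, so higher reads as more growth inhibition. Size under these conditions: about 69,000 compounds, about 370 of them at 50% or above in at least one test.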

Values are the deposited “Percent Effect”, in %.
How 0% and 100% were set is not recorded. Most values in the screen are low, and negative values occur.
Compounds were drawn at random from those tested, without regard to their results.
Two or more numbers in one place are separate tests of the same structure; such repeats can differ widely.

| compound | A | B |
|---|---|---|
| `COC(=O)CN1CCC(C(F)(F)F)CC1` | 5.379% and -23.76% | -15.63% |
| `Cc1c(CNC(=O)NCc2cccc(-n3cncn3)c2)cnn1C` | -13.02% and 32.14% | 6.919% |
| `CNc1cc2c(nn1)CCN(C(=O)c1ccc(-n3nccc3C)cc1)C2` | 12.44% | -8.568% |
| `O=C(CCO)N1CC2(CCN(c3ccccc3)C2)C1` | -12.18% and 17.57% | 3.589% |
| `[H][C@@]12CNC[C@]1([H])N(C(=O)c1ccco1)CCO2` | 22.19% | 5.502% |
| `Cc1occc1C(=O)N1CCCN(Cc2nccn2C)CC1` | -4.191% | 8.461% |
| `CCNC(=O)CN(CC)C(=O)c1csc(Cc2ccccc2F)n1` | -25.4% | -8.096% |
| `COCCOc1cc(C(=O)N2CC(C)c3ccccc32)ccn1` (stereo unspecified) | 14.15% and 3.682% | -0.8362% |
| `CC(C1CCN(Cc2cccc(OC(F)F)c2)CC1)N1CCOCC1` (stereo unspecified) | -13.28% | -2.218% and -10.45% |
| `Cc1cc(C2CCC2)nc(NCC(C)(C)N2CCCC2)n1` | -2.893% | -16.38% |
| `[H][C@@]12OCCN(S(=O)(=O)c3cn(C)cn3)[C@@]1([H])CC[C@H]2OCC1CC1` | 21.48% | -5.831% |
| `COc1ccnc(N2CCN(C(=O)c3cscn3)CC2)n1` | -0.8254% and 6.567% | 2.561% |
| `O=C(NCCCn1cncn1)NCC(c1ccco1)N1CCCCC1` (stereo unspecified) | -31.18% | -23.15% |
| `[H][C@@]12CCN(C(=O)c3ccc[nH]3)[C@]1([H])CC(=O)N2CCOC` | -20.52% | 3.047% |
| `Cn1ccnc1C(O)c1ccccc1N1CCN(Cc2cccs2)CC1` (stereo unspecified) | -19.37% | -20.49% and 5.606% |
| `CC1(c2ncc(CN(CC(=O)O)Cc3ccccc3)cn2)CCCCO1` (stereo unspecified) | -22.28% | -1.131% and -0.3383% |
| `O=C(c1cc2c(s1)CCC2)N1CCC(c2ccncc2)CC1` | 14.96% | 12.43% |
| `CCCc1n[nH]c(=O)n1Cc1ccc(OC)cc1` | -26.49% | -20.73% |
| `O=C(Nc1ccc(N2CCCCC2)cn1)C1CCCN1C(=O)C1CC1` (stereo unspecified) | 27.34% | 3.67% |
| `CN(CCc1nc2ccccc2c(=O)[nH]1)CCC(F)(F)F` | 12.87% and -7.903% | 8.488% |
| `CCCS(=O)(=O)CCN1CCN(c2cc(F)ccc2F)CC1` | -4.16% and 6.373% | -5.523% |
| `CCNc1cc2c(nn1)CCN(C(=O)c1cc3ccccc3[nH]c1=O)C2` | -3.35% | -5.39% |
| `Cc1nc(NCC2CC2)nc2c1COCC21CCN(CC(=O)N(C)C)C1` (stereo unspecified) | -1.122% | 21.91% and -5.325% |
| `CNc1cc(CCNC(=O)C2CCCC2)nc(-c2ccccn2)n1` | 11.15% | 1.105% and 10.08% |
| `Cc1nc(N2CCC3(CCCN(CC4CC4)C3=O)C2)c2sccc2n1` (stereo unspecified) | -3.932% | -29.24% |
| `Cc1cc2c(=O)n3c(nc2s1)CCN(C(=O)c1c(C)noc1C)CC3` | 31.32% | -11.27% |
| `COc1ncccc1C(=O)N1CCC2(CC1)CC(OC)CO2.O=C(O)C(F)(F)F` (stereo unspecified) | -9.943% | -9.907% |
| `Cc1cc(C(=O)N(C)Cc2ccoc2)c(NC(=O)C(C)(C)C)s1` | -0.2776% | 0.2564% |
| `O=C1CCC(C(=O)N2CCC(Cn3cc(C4CCCC4)nn3)CC2)=NN1` | -35.37% and -1.185% | 23.14% |
| `Cc1ccc(C)c(Oc2ccc(CNC(=O)C3CNC(=O)N3)cn2)c1` (stereo unspecified) | -1.868% | -12.74% |
| `O=C1NCCN(C(=O)CCN2CCCO2)C1c1cccc(F)c1` (stereo unspecified) | 2.4% and 23.37% | 11.2% |
| `COc1ccc(Cl)cc1S(=O)(=O)N(C)CC(=O)Nc1cccnc1` | 15.05% | -9.485% |
| `COCC(=O)N1CCc2c(CNS(C)(=O)=O)n[nH]c2C1` | -2.855% and -15.22% | -18.55% |
| `CN(C)C(=O)c1cccc(CN2CCN(CCO)CC2)c1` | -10.5% | -44.26% |
| `CCCNC(=O)CN1CCCC1c1nc(Cc2ccc(F)cc2)no1` (stereo unspecified) | -0.1156% and 20.29% | 5.63% |
| `COc1c(C2CCCN2C(=O)CCNc2ncccn2)c(C)nn1C` (stereo unspecified) | 10.33% | -4.155% |
| `Cc1cc(CS(=O)(=O)NC2CCCc3ccccc32)on1` (stereo unspecified) | 0.2924% | -17.68% |
| `Cc1ccc(S(=O)(=O)N2CSCC2C(=O)NCC(F)(F)F)cc1C` (stereo unspecified) | -14.03% | -23.31% |
| `CN1CCCN(CC(CC(=O)Nc2ccc(Cl)cc2)C(=O)O)CC1` (stereo unspecified) | -36.21% and -0.268% | -4.324% |
| `[H][C@]12CCN(C(=O)COC)CC[C@@]1([H])S(=O)(=O)N(Cc1cccc(Cl)c1)C2` | -53.33% | -0.08712% |
| `CCc1ncc2c(n1)CN(C(=O)COC)C2` | -3.908% and -13.65% | -4.28% |
| `CCc1oc(C(=O)NCCSc2ncn[nH]2)cc1CN1CCCC1` | 13.27% | -5.056% |
| `O=C(Cc1cccc(F)c1)N1CCc2ncnc(N3CCCC3)c2CC1` | 2.91% and 15.23% | 11.77% |
| `CCOCC1CN(C(=O)CC2=CCCCC2)Cc2nnn(C)c21` (stereo unspecified) | -2.511% | -8.08% |
| `CC(C)c1nnc2n1CCN(C(=O)c1cnc(C3CC3)s1)C2` | -13.14% | -24.03% |
| `CC(C)C1CN(C(=O)c2ccc(C(N)=O)cc2)CCS1` (stereo unspecified) | -12.9% | -18.18% |
| `Cc1csc2nc3n(c(=O)c12)CCN(Cc1c[nH]cn1)CC3.Cl` | -4.706% | -7.241% |
| `Cc1cc(C)c(CNC(=O)NCc2ccc3c(c2)CCC3)c(=O)[nH]1` | -31% | -9.611% |
| `COc1c(Br)c(CC2CC(CO)=NO2)c(Br)c2c1OCO2` (stereo unspecified) | 25.17% | 0.06363% |
| `Cc1nn(C)c(C)c1C1CCCN1CCCC#N` (stereo unspecified) | -28.08% | -13.66% |
| `Cc1noc(C2CCCN(C(=O)c3cc(Cl)ccc3F)C2)n1` (stereo unspecified) | -4.875% | -1.834% |
| `Cc1nc(N2C[C@@H](CN3CCCN(C)CC3)[C@@H](CO)C2)c2sccc2n1` | -48.3% | -44.45% |
| `Nc1cc(-c2cncnc2C2CCN(C(=O)c3ccccc3)C2)ccn1` (stereo unspecified) | 22.97% | 3.641% |
| `Cc1nc(-c2cccc(C#N)c2)nn1CC1(O)CCCCC1` | -15.09% and 4.828% | -26.72% |
| `COCc1nnc(C(=O)N(C)Cc2ccc(OC)cc2)o1` | 24.25% | 16.4% |

For reference, 5 entries once more:

{"compound": "Cc1nc(NCC2CC2)nc2c1COCC21CCN(CC(=O)N(C)C)C1", "stereo": "stereo unspecified", "A": -1.122, "B": "21.91 and -5.325"}
{"compound": "O=C1NCCN(C(=O)CCN2CCCO2)C1c1cccc(F)c1", "stereo": "stereo unspecified", "A": "2.4 and 23.37", "B": 11.2}
{"compound": "Cc1cc(C2CCC2)nc(NCC(C)(C)N2CCCC2)n1", "A": -2.893, "B": -16.38}
{"compound": "CCCS(=O)(=O)CCN1CCN(c2cc(F)ccc2F)CC1", "A": "-4.16 and 6.373", "B": -5.523}
{"compound": "Cc1c(CNC(=O)NCc2cccc(-n3cncn3)c2)cnn1C", "A": "-13.02 and 32.14", "B": 6.919}

Source: ChEMBL document CHEMBL3988442, “University of Dundee, Small-Polar-MMV Screening Library” (2021).